104 sequences from PubChem BioAssay AID1347423 (Functional Genomics Laboratory (NCATS/FGL), 2020) can be followed below.

Screen size: about 52,000 sequences; about 210 (0.4%) were called active.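 Rule for the calls: active = gene whose silencing raises cell survival under the drug, median off-target-corrected z-score across its silencing RNAs 2 or more; inactive = the rest.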 This is one part of the list.

This assay is described as follows: Resistance to Poly (ADP-Ribose) Polymerase inhibitor: Gene Identification via Genome-wide siRNA Screen. As to conditions: mouse BRCA2 R2336H ES cells, olaparib, CellTiter-Glo viability; hits give high values. The method, boiled down: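 Mouse BRCA2 R2336H ES cells were reverse-transfected with siRNA (20 nM final), treated at 48 h with 500 nM olaparib, and read by CellTiter-Glo after 72 h. Scores: MAD-based z per siRNA, median per gene, seed off-target correction.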
In the case of GCAUAGUUCAGAUUUACAGTT against Zfp27, the z-score was inactive: -0.178.

For the sequence UACAGGGUUAGCUCAUCACTT against LOC382243, the z-score was inactive: -1.54.

With “GCUAGACCAGAAGAAAGUATT against 2310003C23Rik”, the z-score is inactive: -0.974.

For the sequence CGAUGGGUUGUAUGAGACCTT against Fut10, the z-score was inactive: 1.42.

In the case of GGAUUAUUCCCAGUAUGAGTT against Krt1-23, the z-score is inactive: -1.21.

In the case of GCUUUCAUAGAAUCUUGGCTT against Rnf24, the z-score was inactive: -0.646.

As to GGCAGAGGAAAUCAUGAAGTT against Clpp, the z-score was inactive: 0.653.

For GGAAGAGGAAGAUAUUGAUTT against Bbx, the z-score was inactive: 0.746.

For GGUCAAGAGGAAGGAGCCATT against BC035291, the z-score was inactive: -2.59.

For the sequence “CGUAGUAGCCACGUCUACUTT against 1810022C23Rik”, the z-score was inactive: -1.84.

With CCACCACCUAUUACAAUGATT against Lcn5, the z-score is inactive: 0.184.

For the sequence GCGUGUCACGUUCCCAUCUTT against BC024868, the z-score is inactive: 1.05.

As to GCGAACUCAAGCUGUAACCTT against Grhpr, the z-score is inactive: -0.695.

In the case of GGAAGCUGUCCAAAAUGAGTT against Hnf4a, the z-score is inactive: -0.101.

On to GGCUGUAUCCUGACAGCAATT against Olfr244, for which the z-score was inactive: 0.191.

As for GGACAACGUGGACUACUGGTT against Pcdh15, the z-score is inactive: -0.904.

Take GGCAAUCUACUCAUUGUUGTT against Olfr1239: the z-score is inactive: 0.506.

Regarding GGUGGUAAAAGAUACGACCTT against Atp6v1e1, the z-score was inactive: -0.805.

GGAGAUGAAGAGGUUGGUUTT against Olig3: the z-score was inactive: -0.366.

For the sequence CCCUAUGUUCUUUGUCUAUTT against Dbccr1, the z-score is inactive: 0.316.

Regarding “GCUCAAUGCAGAAGGACGGTT against 1700058C13Rik”, the z-score was inactive: -0.383.

“CCAUAGCUGAUACUGAUGCTT against 2210421G13Rik”: the z-score is inactive: -0.638.

In the case of GGGCUUGUGGCUUUAGUAUTT against AI836003, the z-score is inactive: -1.52.

GAACGACACAAGGCCUUCATT against Olfr585: the z-score is inactive: 1.99.

As for GGUUUUCCUAAACUCUUGATT against Usp6nl, the z-score is inactive: -0.1.

Take GCCCGUGUGUAAGUGCAAATT against AY100450: the z-score was inactive: 0.989.

On to “GGAACACCUACAGUAUAAATT against G431001I09Rik”, for which the z-score was inactive: 0.325.

With “GGACCCAUGAGGUUAACUUTT against D15Ertd781e”, the z-score was inactive: -1.18.

As for GGACUCUGAAACCAUUAAATT against Fmo4, the z-score was inactive: -1.21.

Take GGGCAUUAAAGAAUCCAUUTT against Olfr1008: the z-score was inactive: 0.722.

Regarding GGCUGAAAACAUCGUGGUCTT against Sncg, the z-score was inactive: 0.792.

For the sequence “GGACCUUGGAUAUAAAGGUTT against B430110G05Rik”, the z-score was inactive: 0.331.

For the sequence GGACAAGUAUGAAUGUCUATT against Ptk2b, the z-score is inactive: -1.18.

In the case of GCUGCGUUACUGGAAGUUUTT against Loxl2, the z-score was inactive: -0.526.

Consider GGGAGGUGAAACUGAGAAUTT against Mcpt4, for which the z-score was inactive: -1.38.

As for “GGUCCCUUGAUGUCGAUUATT against Simp-pending”, the z-score was inactive: -0.645.

As for GGUGGUUUAACUGGAUAUUTT against BC017133, the z-score was inactive: -1.98.

With GGUGAAGAUGGACUCUCUGTT against Rg9mtd3, the z-score was inactive: -0.193.

In the case of GGUAACACCUUCCUUUAAGTT against 6.33E+19, the z-score is inactive: 0.422.

GGCAUUUGAAGAUGAAAUGTT against Bzw2: the z-score is inactive: 0.163.

On to GGUCAUGUCCAUCCCAAAGTT against D5Ertd40e, for which the z-score is inactive: 0.835.

Consider GGAGCUAGAACAGUUUGCCTT against Pou5f1, for which the z-score is inactive: -1.64.

With CGGUUAGAGCAUUAAGUUCTT against Lias, the z-score is inactive: 0.279.

With GUUUAUAGGUAACUGUCACTT against Defb11, the z-score is inactive: -0.067.

Turning to GGAGACCUUCAACUUGUACTT against Ephb1, the z-score was inactive: 0.473.

GCACAUGUGUUUAUACAUUTT against Sfxn3: the z-score was inactive: -2.07.

Turning to GCACAGACUGAGAGGAAAATT against Mog, the z-score was inactive: 0.461.

Take “GCAGUGCCUGCAGAUUCUUTT against 1110061N23Rik”: the z-score is inactive: 1.53.

Regarding GGGAGUAAAAAGGUGAUCATT against Gfra2, the z-score is inactive: -0.153.

On to GGAUACUCUCAGGACGUGATT against Ncbp2, for which the z-score was inactive: 3.82.

GGUGGUCCGUAAAGUGGUUTT against Slc25a15: the z-score is inactive: 1.71.

For the sequence GCAACUGCUUCUAAUAAGATT against Leprel2, the z-score is inactive: 0.0379.

As for CGUGGAUAUCAGAAAGCAATT against Cfhrb_4/2, the z-score is inactive: -1.04.

As for “GGGUCUCAUGAAGAAAUUUTT against 0610009F02Rik”, the z-score was inactive: 0.171.

Take GGACCAGAUUCACCAUAUUTT against Ifi44: the z-score is inactive: -1.17.

For GUGGAAAUUAAUCUGGGUUTT against MNCb-4137, the z-score was inactive: 0.244.

With “GCCAUGAUGUAGAGGUAGGTT against 2310012P17Rik”, the z-score is inactive: 0.797.

In the case of GGGAACUCCACUAAGGAAATT against Slc26a1, the z-score was inactive: 0.216.

As for GGUUUGUCAUUUCCUGCCCTT against Ian4, the z-score was inactive: 0.98.

On to “CGGAAAACAUUGGACUCCCTT against 1700019I23Rik”, for which the z-score is inactive: -1.24.

Consider GGCUGUCAUGGGUGAAUCCTT against Sprr2e, for which the z-score is inactive: 0.966.

In the case of GGAGAAAAGUCUACAGAAATT against Areg, the z-score was inactive: -0.69.

With GGAGUAAACCUACUGCUCATT against Esam1, the z-score is inactive: 1.14.

As to GGAAAAUAAAAUUGCAUGCTT against Oas1d, the z-score was inactive: 1.04.

As to GCUUAAUCAACUGGUACUATT against Olfr19, the z-score is inactive: -0.0443.

For GGUACAGGGAAGGAUCGUGTT against Zfp469, the z-score was inactive: 1.51.

As for GGCCCUUUCUGUCACUUAGTT against Mylc2b, the z-score is inactive: -2.22.

Take GGAAGAUGUGAAGAUUUAATT against Acvr1b: the z-score was inactive: 1.47.

For the sequence GGCCAUUUUUGAAAGCUAATT against Dcdc2, the z-score was inactive: 2.17.

Regarding GGCCCUGAGAAACUAUAGGTT against Myh1, the z-score was inactive: 0.912.

For the sequence GCAUUAGUGGCAGAACUUUTT against Gcet2, the z-score was inactive: 1.88.

As to GGCAUUCAGAACUUACUAUTT against Ofd1, the z-score is inactive: 0.67.

With GGCCGGGAAGAAAGAGAAATT against Ptn, the z-score was inactive: -2.1.

Consider CGGUUCCACUUCAAAUGACTT against Hsd17b2, for which the z-score was inactive: -0.774.

Take CGAAGCUGCAAAGGAGAAGTT against Igf1: the z-score is inactive: -0.732.

With GCCGUUCAAAAAUUUGUCCTT against Cyp11b2, the z-score is inactive: 1.26.

In the case of GUGGUUGAACGGGAAUUUGTT against LOC433719, the z-score is inactive: 1.

As to “GGGUAUGCUCAUCAUGCUGTT against 4732482E20Rik”, the z-score is inactive: -0.235.

Turning to GGUGUUUCGUCUACCCUUCTT against Olfr370, the z-score is inactive: 0.396.

On to CGACAUAAAGGCUUGUCAATT against Rabl3, for which the z-score was inactive: 1.66.

Regarding GCACCUAGAUUGAUCAUAGTT against Olfr1183, the z-score was inactive: -2.32.

On to GCAUUUCGUCAGGGCAAAATT against Fuca1, for which the z-score is inactive: 0.193.

For GGAAGAAGAAAGAUCCAACTT against Tpt1h, the z-score was inactive: 0.335.

Consider “GGACUCACGUCAAGAUGUUTT against 2610318C08Rik”, for which the z-score was inactive: -1.33.

Turning to GCCUUAAAAGACCUGACGUTT against Abca8b, the z-score is inactive: 3.17.

Turning to “GGUGACAGUACAGAAAAGUTT against 2410006N06Rik”, the z-score was inactive: 0.0931.

On to GGGCUUUGAGCGUGAGUACTT against Adcy7, for which the z-score is inactive: -0.354.

Take GGACUCAAACGACACAUGCTT against Peci: the z-score was inactive: 1.44.

GGUACUUCUUCCUUGCUCATT against Itm2c: the z-score is inactive: -0.243.

Regarding GAAGUUACAGUGAAGUCUCTT against Zfp395, the z-score was inactive: -1.52.

Consider GGGAAGGUCACCGUCAAGUTT against Ppp1r14b, for which the z-score is inactive: 0.437.

Regarding CGAACCCUGAAAGAACAUATT against AI315119, the z-score is inactive: -0.986.

On to GGUGAUGACCAACUCAGUGTT against Prcc, for which the z-score was inactive: 0.428.

Regarding “GGACAUCAUGGACCUGAAGTT against 2900011O08Rik”, the z-score is inactive: -2.75.

For GCCGAUGAUGAGAAACGACTT against Cd2, the z-score is inactive: 0.716.

“GGUGACCACUUCAUGUCACTT against 2900055D14Rik”: the z-score is inactive: 1.02.

As for GGAUUGACUUCAUGGAUAUTT against Btc, the z-score was inactive: -1.27.

With CCUACGAGGAUUAUGUUGATT against Myl6, the z-score is inactive: 0.727.

On to “GGCUUAGUAUGUUGUAUUCTT against 2010107G23Rik”, for which the z-score is inactive: 0.165.

Take CUUUAGACUUCAUGCUCUCTT against Olfr128: the z-score is inactive: 0.719.

Turning to GCAUUUGAUGAAGACUCGATT against Barx2, the z-score was inactive: 0.0506.

Turning to “GCAAGUCAAGUGGGCCAAATT against G430095P16Rik”, the z-score was inactive: 0.121.

On to CCAAGGUGCUGUUGGUAUATT against Ssr2, for which the z-score is inactive: -0.217.

Turning to GGCAACAUAGUAAUUGUGGTT against Olfr1223, the z-score is inactive: -0.067.
